From US20060199195A1
These are yes or no findings as the source states them, for the method shown. For part of these data: In cells and extracts the contact can be indirect. Some results given as binding are weak or reduced against the parent protein; the word gives no strength.

Chains of the proteins cited; added tags and fusions are not shown. Lines headed by an entry give the natural chain unless they say otherwise; changes in a name come on top. A line that says so, or that is headed by a name, gives the form on record, which may keep a tag or linker. Residues count along the entry.
βII-spectrin residues 1716 to 1997 fused to the GAL4 activation domain (pGAD10Sp) (Q01082, residues 1716-1997): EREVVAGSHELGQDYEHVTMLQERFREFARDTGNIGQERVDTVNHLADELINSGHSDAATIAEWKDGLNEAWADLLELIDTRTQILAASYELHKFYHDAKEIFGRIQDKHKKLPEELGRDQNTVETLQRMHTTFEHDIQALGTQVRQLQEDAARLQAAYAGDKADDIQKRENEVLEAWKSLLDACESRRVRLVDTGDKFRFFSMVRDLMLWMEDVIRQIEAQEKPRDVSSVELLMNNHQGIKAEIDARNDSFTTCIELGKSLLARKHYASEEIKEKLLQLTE
maltose binding protein fused with βII-spectrin residues 1779-1992 (MBPSp) (Q01082, residues 1779-1992): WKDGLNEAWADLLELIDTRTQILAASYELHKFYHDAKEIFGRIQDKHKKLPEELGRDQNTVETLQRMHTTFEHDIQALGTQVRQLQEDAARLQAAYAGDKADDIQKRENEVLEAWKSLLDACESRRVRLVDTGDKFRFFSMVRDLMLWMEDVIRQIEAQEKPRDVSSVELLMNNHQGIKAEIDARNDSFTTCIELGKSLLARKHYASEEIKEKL
UniProt P35240: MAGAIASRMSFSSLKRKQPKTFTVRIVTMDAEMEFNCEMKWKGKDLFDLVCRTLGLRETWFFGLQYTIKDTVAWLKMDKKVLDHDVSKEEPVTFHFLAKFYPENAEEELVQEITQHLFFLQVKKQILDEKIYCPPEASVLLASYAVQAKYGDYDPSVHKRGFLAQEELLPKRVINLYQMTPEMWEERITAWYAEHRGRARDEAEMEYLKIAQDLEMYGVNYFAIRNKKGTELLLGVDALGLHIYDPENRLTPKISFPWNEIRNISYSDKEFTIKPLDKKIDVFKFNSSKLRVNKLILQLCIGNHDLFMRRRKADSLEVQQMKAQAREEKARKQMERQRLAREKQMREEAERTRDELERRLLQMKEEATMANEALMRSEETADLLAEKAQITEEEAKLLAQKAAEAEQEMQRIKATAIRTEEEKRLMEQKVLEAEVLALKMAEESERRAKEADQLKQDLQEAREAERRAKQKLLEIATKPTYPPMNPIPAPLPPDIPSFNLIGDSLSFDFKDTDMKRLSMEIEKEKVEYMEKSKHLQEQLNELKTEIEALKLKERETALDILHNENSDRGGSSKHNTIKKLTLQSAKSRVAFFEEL

What was measured:
[1] = molecular target: βII-spectrin residues 1716 to 1997 fused to the GAL4 activation domain (pGAD10Sp) (human) (UniProt Q01082); test: yeast two-hybrid, β-galactosidase
[2] = molecular target: maltose binding protein fused with βII-spectrin residues 1779-1992 (MBPSp) (UniProt Q01082); test: pull-down on MBPSp-saturated amylose resin, Western blot
[3] = molecular target: βII-spectrin residues 1716 to 1997 fused to the GAL4 activation domain (pGAD10Sp) (human) (UniProt Q01082); test: yeast two-hybrid with deletion constructs

In the case of “full-length schwannomin isoform 1 fused to the GAL4 binding domain (pGBT9NF2, residues 1-595) (from UniProt P35240 1-595)”, the binding [1] is reported as “binds”.
For “glutathione-S-transferase fusion of the C-terminal domain of schwannomin isoform 1 (GSTNF2CL, schwannomin residues 469-595) (from UniProt P35240 469-595)”, the binding [2] was “binds”.
For “schwannomin isoform 1 C-terminal construct, GAL4 binding domain fusion (pGBT9NF2CL, Δ1-468) (from UniProt P35240 469-595)”, the binding [3] was “binds”.
